Data on 89 compounds can be found in PubChem BioAssay AID488840 (Broad Institute, 2010).

By UniProt entry, the sequences of proteins in these tests, tags left out. Where a name states a change or a piece, a line headed by the entry shows the natural chain unless it says otherwise.
UniProt O75164: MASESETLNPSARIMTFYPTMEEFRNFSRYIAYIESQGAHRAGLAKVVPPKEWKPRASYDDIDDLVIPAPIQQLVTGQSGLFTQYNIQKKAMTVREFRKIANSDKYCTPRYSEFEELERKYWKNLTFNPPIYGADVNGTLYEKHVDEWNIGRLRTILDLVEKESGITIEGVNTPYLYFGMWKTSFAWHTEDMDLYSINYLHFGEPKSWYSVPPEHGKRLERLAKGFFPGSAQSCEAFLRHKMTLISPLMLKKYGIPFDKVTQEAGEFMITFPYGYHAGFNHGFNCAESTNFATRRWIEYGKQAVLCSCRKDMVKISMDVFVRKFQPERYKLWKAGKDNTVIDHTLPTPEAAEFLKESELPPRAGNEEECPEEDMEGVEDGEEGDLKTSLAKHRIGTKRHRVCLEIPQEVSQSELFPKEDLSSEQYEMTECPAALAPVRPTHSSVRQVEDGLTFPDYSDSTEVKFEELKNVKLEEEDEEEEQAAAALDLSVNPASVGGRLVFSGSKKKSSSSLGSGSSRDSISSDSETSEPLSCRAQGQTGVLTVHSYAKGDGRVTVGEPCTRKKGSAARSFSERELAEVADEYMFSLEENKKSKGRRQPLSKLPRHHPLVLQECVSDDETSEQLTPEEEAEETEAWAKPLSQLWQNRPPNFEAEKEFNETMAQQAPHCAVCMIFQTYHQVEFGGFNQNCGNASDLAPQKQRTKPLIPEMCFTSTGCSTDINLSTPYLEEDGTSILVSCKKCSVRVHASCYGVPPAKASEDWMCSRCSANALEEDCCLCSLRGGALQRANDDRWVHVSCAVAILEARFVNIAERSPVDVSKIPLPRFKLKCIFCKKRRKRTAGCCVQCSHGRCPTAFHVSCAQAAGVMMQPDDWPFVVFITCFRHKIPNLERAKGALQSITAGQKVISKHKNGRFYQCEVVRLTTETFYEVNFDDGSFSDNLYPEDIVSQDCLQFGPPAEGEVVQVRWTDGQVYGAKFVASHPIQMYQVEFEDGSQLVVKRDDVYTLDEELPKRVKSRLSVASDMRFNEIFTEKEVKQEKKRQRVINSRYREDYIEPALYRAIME

Screen size: about 1,400 compounds; about 45 (3%) were called active.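 How the source made its calls: active means half-maximal dose of signal decrease from fit no higher than ten times the top valid tested dose; inconclusive means fit invalid, or curve flat with 30 to 70% inhibition; inactive means the rest.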 The list shows a part of the results. Potency and affinity values are given separately.

The target of this assay is Lysine-specific demethylase 4A (Homo sapiens) (UniProt O75164). Put plainly: inhibition of JMJD2A H3K9me3 demethylation – biochemical, DELFIA europium, cherry-picked samples, selectivity assay for GASC-1 inhibitor project, dose response (AID 488840).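 Further: europium signal reports the dimethyl H3K9 product detected by antibody so inhibitors lower it; 0% = median of neutral control wells and -100% = median of positive control wells.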 The conditions noted are these: GST-JMJD2A(1-420) H3K9me3 demethylation; at 6 µM (top of the series) unless noted.
Turning to `O=C(Nc1cc(S(=O)(=O)N2CCOCC2)ccc1N1CCCC1)c1ccc(F)cc1`, the activity change, negative = inhibition is inactive: 3.87%.
With `CCC(=O)N1c2ccc(S(=O)(=O)CCC(=O)NCCC3=CCCCC3)cc2CC1C` (centres undefined) the figure was inactive: -3.1%; with `COc1ccccc1N1CCN(C(=O)CSc2nc(C)cc(=O)[nH]2)CC1`, inactive: -2.92%.
With `Cc1cccc(NC(=O)/C(=C\c2ccc([N+](=O)[O-])o2)NC(=O)c2ccc(Cl)cc2)c1`, the activity change, negative = inhibition is inactive: 3.18%.
Consider `CCn1c(SCC(=O)Nc2nc(C)cs2)nnc1-c1ccncc1`, for which the activity change, negative = inhibition is inactive: 1%.
As for `Brc1ccc(-c2csc(N3CCc4ccccc4C3)n2)cc1`, the activity change, negative = inhibition is inactive: 4.32%.
On to `COc1ccc(NC(=O)N(C)C[C@H]2Oc3c(NC(=O)Nc4ccccc4)cccc3C(=O)N([C@H](C)CO)C[C@@H]2C)cc1`, for which the activity change, negative = inhibition was inactive: 4.44%.
For the compound `CCOC(=O)C1=C(Cc2ccc(F)cc2)C(=O)c2ccccc2C1=O`, the activity change, negative = inhibition is inactive: -0.812%.
With `Cc1ccc(C(=O)NCC(=O)OCC(=O)Nc2ccc(Cl)cc2C(F)(F)F)cc1C`, the activity change, negative = inhibition is inactive: -5.13%.
`Cc1ccc(NC(=O)C(=O)NCCN2CCN(C(=O)C(c3ccccc3)c3ccccc3)CC2)cc1`: the activity change, negative = inhibition is inactive: 5.03%.
In the case of `COc1ccccc1-n1c(SCC(=O)N2CCCC2)nc2cccnc21`, the activity change, negative = inhibition was inactive: 4.3%.
For `Cc1ccc(O)c(C(=O)c2cc(C#N)c(=O)n(CC3CCCO3)c2)c1` (centres undefined), the activity change, negative = inhibition is inactive: -1%.
As for `CC(C)(C)n1nnnc1C(c1cccnc1)N1CCN(c2ccccc2)CC1` (centres undefined), the activity change, negative = inhibition is inactive: -0.802%.
Then `COc1cc(NC(=O)CSc2nnnn2Cc2ccc3c(c2)OCO3)cc(OC)c1`, with inactive: -2.48%.
Consider `COc1ccc(NC(=O)CCCN(C)S(=O)(=O)c2ccc(C)cc2)cc1`, for which the activity change, negative = inhibition is inactive: 2.38%.
For `Cc1[nH][nH]c(=O)c1C(c1c(C)[nH][nH]c1=O)c1cn(Cc2cccc3ccccc23)c2ccccc12`, the activity change, negative = inhibition is inactive: -3.25%.
In the case of `CCN(CC(=O)NCC1CCCO1)S(=O)(=O)c1ccc(Cl)cc1` (centres undefined), the activity change, negative = inhibition was inactive: 1.3%.
As for `O=C(CN1C(=O)c2ccccc2C1=O)NCC1COc2ccccc2O1` (centres undefined), the activity change, negative = inhibition was inactive: 4.76%.
Then `CCN(C[C@H]1N[C@@](C)(C(=O)OC)[C@H]2C(=O)N(C)C(=O)[C@@H]12)C(=O)Nc1ccc(OC)cc1`, with inactive: -5.46%; and `COC(=O)COc1ccc(S(=O)(=O)N2CCOCC2)cc1C`, with inactive: 3.53%.
Take `COc1ccc(CNC(=O)C2(CC3CC(c4ccccc4)=NO3)CCNCC2)cc1` (centres undefined): the activity change, negative = inhibition was inactive: 2.92%.
On to `CSc1nsc(SCC(=O)Nc2c(C)n(C)n(-c3ccccc3)c2=O)n1`, for which the activity change, negative = inhibition was inactive: -4.06%.
In the case of `COc1ccccc1NC(=O)c1cccs1`, the activity change, negative = inhibition was inactive: -1.95%.
With `c1ccc(Nc2n[nH]nc2-c2ccccc2)cc1` the figure was inactive: 3.68%; with `Cc1cc(Cl)ccc1OCc1nc(-c2ccncc2)no1`, inactive: 7.24%; with `COC(C/C=C\[C@H](O)[C@H](C)OCc1ccccc1)OC`, inactive: 2.1%.
In the case of `Cn1c(=O)[nH]c(=O)c2c1nc(N1CCOCC1)n2CCc1ccccc1`, the activity change, negative = inhibition is inactive: -2.37%.
Turning to `COc1ccccc1C(=O)OCc1c(-c2ccccc2)ncc2ccccc12`, the activity change, negative = inhibition was inactive: -0.648%.
Consider `OCc1ccc(-c2nn(Cc3ccccc3)c3ccccc23)o1`, for which the activity change, negative = inhibition is inactive: -1.29%.
Then `COc1ccc(OC)c(C2=NOC(C(=O)NCCN3CCOCC3)C2)c1` (centres undefined), with inactive: 3.92%; and `CC(=O)Nc1ccc(NC(=O)CSc2ncnn2-c2ccccc2)cc1`, with inactive: -3.98%; and `COc1ccc(OC)c(/C=N/NC(=O)CNC(=O)c2ccc(S(=O)(=O)N3CCOCC3)cc2)c1`, with inactive: -4.35%.
With `CCC(=O)N1CCc2cc(Br)cc(S(=O)(=O)CC(=O)OC)c21`, the activity change, negative = inhibition was inactive: -2.94%.
On to `CCN(c1ccc(NC(=O)CCNC(=O)c2ccco2)cc1)C(C)C`, for which the activity change, negative = inhibition is inactive: 1.4%.
With `CC1CC(NC(=O)N(C)C)N(C)C(=O)N1` (centres undefined), the activity change, negative = inhibition is inactive: 2.56%.
Then `CC(CC(=O)Nc1cc([N+](=O)[O-])ccc1Cl)c1ccccc1` (centres undefined), with inactive: 4.4%; and `CCOC(=O)c1c(S(=O)(=O)NCC(=O)Nc2cccc(C)c2C)c(C)n(C)c1C`, with inactive: 5.71%; and `CCCCCCC(=O)N1CCN(c2cc3c(cc2F)c(=O)c(C(=O)O)cn3CC)CC1`, with inactive: -2.15%.
With `O=C(Nc1cccnc1)c1ccc2c(c1)C(=O)N(Cc1cccnc1)C2=O`, the activity change, negative = inhibition is inactive: -1.63%.
With `CCn1nnnc1SCC(=O)NCc1cccs1`, the activity change, negative = inhibition is inactive: 5.59%.
For `CCC(C)(C)NC(=O)C(c1cccn1C)N(Cc1ccc(OC)cc1)C(=O)Cn1nnc2ccccc21` (centres undefined), the activity change, negative = inhibition is inactive: 5.84%.
In the case of `CCOC(=O)[C@H]1[C@H]2COc3ccc(OC)cc3[C@@H]2N2C(=O)c3cc(C)ccc3NC(=O)[C@@]12C`, the activity change, negative = inhibition was inactive: 7.75%.
For the compound `Cc1noc(C)c1NC(=O)Nc1cccc2c1O[C@H](CN(C)S(=O)(=O)c1cccs1)[C@@H](C)CN([C@H](C)CO)C2=O`, the activity change, negative = inhibition was inactive: -2.83%.
`O=C1[C@@H]2[C@H](C(=O)N1O)[C@H]1C=C[C@@H]2C1`: the activity change, negative = inhibition was inactive: 6.42%.
As for `CSc1nc(N)nc2c1ncn2CC(=O)N[C@H](CO)Cc1c[nH]c2ccccc12`, the activity change, negative = inhibition is inactive: -1.96%.
With `Oc1cc(O)cc(/C=C/c2ccc(O)c(O)c2)c1` the figure was inactive: -0.168%; with `Cc1ccc(-c2csc3nc(C)n(-n4c(C)ccc4C)c(=O)c23)o1`, inactive: -4.71%; with `Cc1ccc(OCc2nnnn2-c2ccccc2)cc1`, inactive: 4.18%.
Then `COc1cccc(C2c3[nH]c4ccccc4c3CCN2CCCn2cccn2)c1` (centres undefined), with inactive: -3.61%; and `CC(C)(C)OC(=O)NNC(=O)Nc1ccccc1C(F)(F)F`, with inactive: -0.854%; and `Cc1ccc(C(C)C)c(Oc2nnnn2-c2ccccc2)c1`, with inactive: 0.187%.
Regarding `O=C1CC2(CCN(C(=O)c3ccccc3Cl)CC2)Oc2ccccc21`, the activity change, negative = inhibition was inactive: -4.38%.
Turning to `Cc1cccc(CN2CCC(Oc3ccc(C(=O)N4CCCC4)cc3)CC2)n1`, the activity change, negative = inhibition is inactive: 1.86%.
Then `Cc1nc2ccccn2c1C(=O)NCCCN1CCOCC1`, with inactive: -2.15%.
With `Cc1cc(N2C(=O)C(=O)/C(=C(/O)c3ccc(F)cc3)C2c2cccc(Br)c2)no1` (centres undefined) the figure was inactive: -0.821%; with `C#CCOCCOCCOCCNc1nc(N2CCN(C(=O)[C@H](CCC(=O)O)n3cc(CN)nn3)CC2)nc(N2CCN(C(=O)[C@H](CCCN=C(N)N)n3cc(C(N)[C@@H](C)CC)nn3)CC2)n1` (some centres undefined), inactive: 1.13%; with `Cc1ccc(CCNC(=O)C23C[C@H]4C[C@@H](C2)CC(n2nnc(C)n2)(C4)C3)cc1`, inactive: -2.36%.
On to `CCCNC1=C(N(C(C)=O)c2cccc(F)c2)C(=O)c2ccccc2C1=O`, for which the activity change, negative = inhibition is inactive: -4.23%.
Take `c1coc(CSCc2cn3cccnc3n2)c1`: the activity change, negative = inhibition was inactive: 5.39%.
In the case of `C=C(C)COc1ccc(-c2n[nH]c(C)c2-c2ccccc2)c(O)c1`, the activity change, negative = inhibition is inactive: 13.4%.
As for `CS(=O)(=O)c1ccccc1-c1nnc(NC(=O)c2ccc3ncsc3c2)o1`, the activity change, negative = inhibition was inactive: 1.2%.
As for `COC(=O)C1=C(C)OC(N)=C(C#N)C1c1cc2cccc(C)c2nc1Cl` (centres undefined), the activity change, negative = inhibition is inactive: 3.92%.
Turning to `NC(=O)CC(NC(=S)NCc1ccccc1)C(=O)O` (centres undefined), the activity change, negative = inhibition is inactive: 0.543%.
For `COc1ccc(S(=O)(=O)N2CC(O)CC2C(=O)OCc2nc3sc(C)c(C)c3c(=O)[nH]2)cc1` (centres undefined), the activity change, negative = inhibition was inactive: -4.05%.
With `C=CCN(CC=C)Cc1c(O)ccc2c1oc(=O)c1ccccc12` the figure was inactive: 3.31%; with `CCOC(=O)[C@H]1[C@H]2COc3ccc(C)cc3[C@@H]2N2C(=O)c3ccc(Cl)cc3NC(=O)[C@@]12C`, inactive: -4%.
`O=C(c1ccc2c(c1)OCO2)N1CCCN(C(=O)c2ccc3c(c2)OCO3)CC1`: the activity change, negative = inhibition was inactive: 3.49%.
With `N#Cc1ccc(CSc2ncnc3c2cnn3Cc2ccccc2)cc1` the figure was inactive: -2.66%.
Turning to `c1ccc2cc(CCO[C@H]3CCCCO3)ncc2c1`, the activity change, negative = inhibition was inactive: -1.12%.
Consider `N#CC1=C(N)N2C(=C(C#N)C13CCCCC3)SC1CCCCC12O` (centres undefined), for which the activity change, negative = inhibition was inactive: 0.652%.
In the case of `Cc1ccc(C(Sc2ccccc2)C(Cn2cncn2)C(=O)c2ccccc2)cc1` (centres undefined), the activity change, negative = inhibition was inactive: 0.915%.
`Cn1c(=O)[nH]c(=O)c2c1nc(SCC(=O)O)n2CCc1ccccc1`: the activity change, negative = inhibition was inactive: 1.92%.
For `CCCSc1nc(-c2ccccc2)cc(C(F)(F)F)c1C#N`, the activity change, negative = inhibition was inactive: 1.49%.
With `O=c1oc2ccccc2c(O)c1C=NCc1ccccn1`, the activity change, negative = inhibition is inactive: 3.55%.
Then `Cn1cc(C(=O)N2CCCCC2)c(=O)c2cc(S(=O)(=O)N3CCCC3)ccc21`, with inactive: -13.4%.
Consider `CCOC(=O)CCC(=O)NCc1ccc2c(c1)cc(C)n2C`, for which the activity change, negative = inhibition is inactive: 13.1%.
`CN(C)CCCNC1=CC(=O)OC12CCCCC2`: the activity change, negative = inhibition is inactive: 6.24%.
As to `Cc1ccc(-n2nc3c(N4CCC(C(=O)N5CCCCCC5)CC4)nnc(C)c3c2C)cc1`, the activity change, negative = inhibition is inactive: 2.68%.
Then `Cc1nnc(N2C(=O)c3cccc4c([N+](=O)[O-])ccc(c34)C2=O)s1`, with inactive: -1.72%.
Consider `O=C(COC(=O)c1cccs1)c1ccccc1`, for which the activity change, negative = inhibition was inactive: -1.5%.
For `Oc1ccc(C2Nc3cccc4cccc(c34)N2)cc1`, the activity change, negative = inhibition is inactive: 5.71%.
Then `O=C(O)c1cc2cc(Cl)ccc2oc1=O`, with inactive: -4.41%; and `C[C@H](CO)N1C[C@H](C)[C@@H](CN(C)Cc2ccc3c(c2)OCO3)Oc2c(NC(=O)C3CCCCC3)cccc2C1=O`, with inactive: -7.36%; and `Cc1occc1-c1nnc(SCC(=O)c2c[nH]c3ccccc23)n1C`, with inactive: -3.2%.
For `COc1cccc2c1nc(C)c1cc(C)oc12`, the activity change, negative = inhibition was inactive: 1.66%.
For the compound `COc1ccc(-n2cc(C(=O)O)c3ccccc3c2=O)cc1`, the activity change, negative = inhibition was inactive: 2.71%.
Turning to `COC(=O)[C@@H](N)Cc1ccc(O)c(O)c1`, the activity change, negative = inhibition was inactive: -7.2%.
On to `Cc1ccc(NC(=O)C2C3CCCC2C3c2ccccc2)cc1C` (centres undefined), for which the activity change, negative = inhibition was inactive: -3.04%.
On to `Cn1nnc(NC(=O)CSc2ccc(Cl)cc2)n1`, for which the activity change, negative = inhibition is inactive: 1.81%.
